Measurements taken from PMC7910558.

Protein sequences, listed by entry. Tags and fused reporters are not part of them. Lines headed by an entry give the natural chain unless they say otherwise; changes in a name come on top.
UniProt P14618: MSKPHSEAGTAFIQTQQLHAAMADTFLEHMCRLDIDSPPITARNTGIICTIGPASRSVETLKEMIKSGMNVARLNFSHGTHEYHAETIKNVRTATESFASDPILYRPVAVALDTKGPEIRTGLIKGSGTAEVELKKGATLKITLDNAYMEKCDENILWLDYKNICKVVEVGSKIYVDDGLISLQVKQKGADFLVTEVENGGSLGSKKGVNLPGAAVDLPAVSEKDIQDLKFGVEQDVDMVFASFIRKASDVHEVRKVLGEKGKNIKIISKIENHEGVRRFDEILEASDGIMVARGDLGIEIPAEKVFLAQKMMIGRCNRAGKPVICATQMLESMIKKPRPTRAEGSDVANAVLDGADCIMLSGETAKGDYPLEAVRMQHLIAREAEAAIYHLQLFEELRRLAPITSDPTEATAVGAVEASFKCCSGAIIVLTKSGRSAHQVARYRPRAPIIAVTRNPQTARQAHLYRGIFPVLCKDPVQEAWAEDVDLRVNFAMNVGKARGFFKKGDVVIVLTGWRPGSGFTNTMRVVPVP
UniProt Q9H6Z9: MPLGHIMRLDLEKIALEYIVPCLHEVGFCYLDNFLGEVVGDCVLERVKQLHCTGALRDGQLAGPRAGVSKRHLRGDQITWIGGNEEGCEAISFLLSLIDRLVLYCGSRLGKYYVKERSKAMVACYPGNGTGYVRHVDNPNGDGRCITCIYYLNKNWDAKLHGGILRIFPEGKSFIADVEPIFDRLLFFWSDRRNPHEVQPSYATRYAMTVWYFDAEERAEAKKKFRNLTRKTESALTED

Legend:
PKM2 = PKM2 (UniProt P14618); experiment: pull-down; details: Pull-down: RNA folded in 10 mM Tris pH 7, 0.1 M KCl, 10 mM MgCl2, then 5 µg RNA with 5 mg lysate in Pierce IP lysis buffer, 1 h, room temperature, protein in an extract, label: biotin-16-UTP
PKM2 (EMSA) = PKM2 (EMSA) (UniProt P14618); experiment: EMSA; details: EMSA: LightShift chemiluminescent RNA EMSA kit, buffer not given; recombinant protein; label: biotin-16-UTP
PHD3 = PHD3 (UniProt Q9H6Z9); experiment: pull-down; details: Pull-down: RNA folded in 10 mM Tris pH 7, 0.1 M KCl, 10 mM MgCl2, then 5 µg RNA with 5 mg lysate in Pierce IP lysis buffer, 1 h, room temperature, protein in an extract, label: biotin-16-UTP
[1] = letters put together from the description
[2] = as efficient as full length, letters put together from the description

“UCAGCCACCAGGAACAGAAGGGUGCCGGGUACUUCCGCAUGCUUGGU [HIFAL 1-60 ΔhA (mA)]”: binds (PKM2); binds (PKM2 (EMSA)).

“UCAGCCACCAGGAACAGUACCUGGU [HIFAL 1-60 ΔhA+ΔhB]”: no binding (PKM2; [1]).

“UCAUGUAGCGCCAGCCACACCAGGAACAGAAGGGUGCCGGGUACCUUCCGCAUGCUUGGU [HIFAL nt 1-60]”: binds (PKM2; [2]).

“UCAUGUAGCGCCAGCCACACCAGGAACAGAAGGGUGCCGGGUACCUUCCGCAUGCUUGGUAUUCUCCCCGCGGGGCUCUGACCGCUGCCGCUCUCAGGCACCUGUCUUUCCUCUCCGUCCCAGAAUGGAGCCAAGACAAGGGAAUAAACGAAAUUCAAUAGUACACGGAGAUCGGGUGUCUGGGCAGCGUCUUGGAAAAA [HIFAL nt 1-200]”: binds (PKM2; [1]).

“UCAUGUAGCGCCAGCCACACCAGGAACAGUACCUGGU [HIFAL 1-60 ΔhB (mB)]”: binds (PKM2); binds (PKM2 (EMSA)).

“UGCAUGGUGCUUACUAAUAACACAGUGGUAUUCUAAACAUUUUUCACCUAUUAUUUAAUC [HIFAL nt 501-560]”: binds (PHD3; [2]).

“UGCAUGGUGCUUACUAAUAACACAGUGGUAUUCUAAACAUUUUUCACCUAUUAUUUAAUCUUUAUUAUUAUCACCAUGUUACAGAUAAGGACCCUGGCUAAAUAGCUUACCCAACAUUACUCCGUUAAUAAAUGGUAGAACCUGUAUUUCACUCAAAAA [HIFAL nt 501-659]”: binds (PHD3; [1]).

“UGCAUGUCUAAACAUUUUUCACCUAUUAUUUAAUC [HIFAL 501-560 ΔhC (mC)]”: no binding (PHD3).

For at least one entry, the source does not settle the construct or the ends of the probe. For some of these results: At least one result comes from cells or an extract, where the contact may be indirect. For some of these results: No signal at the amounts used counts as a negative. For some of these results: At least one verdict was read from the data and is not stated in words by the source.
